# Experimental data as given in the supplement of paper PMC5407854, “Inhibitor of ppGalNAc-T3-mediated O-glycosylation blocks cancer cell invasiveness and lowers FGF23 levels” (eLife, 2017).
# Over roughly 1,700 compounds, “T3 sensor activation Q score (MG/GFP ratio z-score vs DMSO controls)” has its median near 0.25; the highest 2% begin near 1.9. The list shows a part of the results.
# System: ppGalNAc-T3 sensor
# Assay: T3 sensor activation Q score (MG/GFP ratio z-score vs DMSO controls) (SD units); higher = more sensor activation (inhibition of ppGalNAc-T3 glycosylation)
# Conditions: HEK293 sensor cells; 10 µM; 6 h
# Procedure: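 Cells were treated with compound at 10 uM for 6 h, then MG/GFP ratio was read by flow cytometry (10,000 cells per well, duplicate wells). Q = (R - R_neg)/SD_neg relative to DMSO vehicle controls; the signal rises when the glycosyltransferase is inhibited.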
row,Compound,T3 sensor activation Q score
1,CC(=O)NCC1(O)CCCC(C)C1 (stereo unspecified),0.8
2,C=CCc1ccccc1OCC(=O)O,-1.5
3,CSc1ccc2c(c1)C(N1CCN(C)CC1)Cc1ccccc1S2 (stereo unspecified),-1.65
4,Cc1nnc2nc(-c3ccccc3)nc(-c3ccccc3)n12,-1.75
5,CC(=O)n1cc(C2CC(=O)OC3=C2CC(=O)C(C)(C)C3)c2ccccc21 (stereo unspecified),-0.35
6,O/N=C(/c1ccccc1)c1ccc2c3c(cccc13)CC2,1.1
7,CCOCc1cc(=O)[nH]c(SC)n1,-0.7
8,CCOC(=O)/C(C#N)=C/c1cccc(C)c1,-0.5
9,O=S1(=O)CCC(N(N=Cc2ccco2)c2ccccc2)C1 (stereo unspecified),0.25
10,O=C(Cn1nnc(N2CCCCC2)n1)N/N=C/c1ccccc1O,0.95
11,Cn1c(=O)c2c(nc(N3CCCCC3)n2C)n(C)c1=O,-0.65
12,Nc1nc(N)c2c(ccc3nccc32)[nH]1,-0.45
13,Cc1c2cc[n+](CCN3CCCCC3)cc2c(C)c2c1[nH]c1ccc(O)cc12,0.45
14,CC(C)(C)CC(C)(C)n1nnnc1N,1
15,Oc1cc(-n2cccn2)c(O)cc1-n1cccn1,0.15
16,O=C(CCCCCCC(=O)Nc1ccccc1)NO,0.85
17,Cn1nc(N)c2ncc(C(Cl)(Cl)Cl)nc21,-1.6
18,COc1ccc2nccc(/C=C/c3ccnc4ccc(OC)cc34)c2c1,-1.05
19,O=C(NC(=S)Nc1cccc(O)c1)c1ccco1,-0.4
20,O=[N+]([O-])/C=C/c1cc2ccccc2[nH]1,-0.75
21,O=c1cc2c(=O)oc3cc(O)c(O)oc3c2c(O)c1O,1.6
22,NC(=S)Nc1cccc(Cl)c1,-1.15

row,Compound,T3 sensor activation Q score
1,Cc1c(COC(=O)NC(C)C)c(COC(=O)NC(C)C)c2n1CS(=O)(=O)C2,0.8
2,O=C(Nc1ccc(C2=NCCN2)cc1)c1ccc(Cl)c(C(=O)Nc2ccc(C3=NCCN3)cc2)c1,1.3
3,c1cc(-n2nnc3cnccc32)ccn1,-1.2
4,COc1ccc(NC(=O)CC(C)=O)c(OC)c1,-0.1
5,CCCCOP(=O)(OCCCC)C1(C)CC(=O)CC(C)(C)C1 (stereo unspecified),-0.35
6,CC(=O)Nc1c(C)cc(OCC(=O)O)cc1C,-0.3
7,COc1ccc(/C=C2/CCOC2=O)cc1,-1.3
8,O=NN(CCCl)C(=O)NCCCl,1
9,C1=CC2(C=C1)OC21CCC2(C=CC3(C2)OC3C2CCCCC2)CC1 (stereo unspecified),1.05
10,O=C(O)C(c1ccccc1)C1(O)CCCCC1 (stereo unspecified),0.2
11,CC(C)(C)NC(=O)c1ccc(C(=O)NC(C)(C)C)cc1,-0.4
12,CCCCN1CCNC1=S,-0.95
13,O=c1[nH]c(C(F)(F)C(F)(F)C(F)(F)F)no1,-0.1
14,Cc1[nH]c(=O)n(C(C)C)c(=O)c1Br,0.5
15,COC(=O)c1cncc(C)c1,-1.15
16,Nc1nc(N)nc(C2C=CCCC2)n1 (stereo unspecified),1.55
17,CCCCOc1ccc(NC(=O)Nc2nnc(C)s2)cc1,1.45
18,CC(C)(C)NC1=NCCNC(c2ccccc2)=C1,0.15
19,Clc1cc2c(nn1)Nc1ccccc1S2,0.2
20,O=C(O)C(Cc1c[nH]c2ccccc12)N1C(=O)c2ccccc2C1=O (stereo unspecified),0.2
21,CCOC(=O)c1nc(SC)n(C)c1C(=O)OCC,0.35
22,COc1cc(NC(=O)c2cc3ccccc3cc2O)c(OC)cc1Cl,-6.4

row,Compound,T3 sensor activation Q score
1,O=S(=O)(O)c1ccc2c(c1)C(C(Cl)(Cl)Cl)OC(C(Cl)(Cl)Cl)O2 (stereo unspecified),0.65
2,CC1=C(O)C(=O)C(c2c(C)cc(C)c(Br)c2C)=C(O)C1=O,1.35
3,CCC(C)c1c(N)n(S(=O)(=O)c2ccc(C)cc2)oc1=O (stereo unspecified),0.6
4,N#CC1C(=O)NC(=O)C(C#N)C12CCCC(C(F)(F)F)C2 (stereo unspecified),0.3
5,NC(=O)c1ccc(Oc2ccc(C(N)=O)cc2)cc1,-1
6,c1ccc(NN(Cc2ccncc2)c2ccccc2)cc1,-0.1
7,O=S1(=O)CCN(Cc2ccccn2)CC1,1.25
8,CCCCCC(=O)C(=O)c1ccc(O)cc1O,0.75
9,O=C(CN1CCOCC1)N1CCOCC1,0.65
10,Cc1ccc(-n2nnnc2-c2cccnc2)cc1,-0.15
11,N#Cc1cc(-c2ccccc2)[nH]c1-c1nccc2ccccc12,-1.45
12,Nc1ccccc1C(=O)Nc1ccc(Cl)cc1Cl,0.95
13,O=C(O)CCc1cccnc1,0.5
14,Clc1ccccc1-c1nc(-c2ccncc2)no1,1.35
15,CC(=O)c1cc2c(cc1C)CCCC2(C)C,-0.3
16,C=CCOC(=O)/C=C\C(=O)NC(N)=O,0.9
17,COc1ccc([N+](=O)[O-])cc1NC(=O)N(C)Cc1ccco1,0
18,CC1(C)CC2(C)OC2C2(C1)N=NC(=Nc1ccccc1)O2 (stereo unspecified),0.95
19,CC1(C)c2ccccc2-c2nc3ccccc3cc2C1O (stereo unspecified),-0.95
20,N#CCS(=O)(=O)c1cccc[n+]1[O-],-0.95
21,COC(=O)[C@H]1[C@H]2C[C@@H]3c4[nH]c5cc(OC)ccc5c4CCN3C[C@H]2C[C@@H](OC(=O)CC(C)=O)[C@@H]1OC,0.85
22,O=CN/C=C\c1cc(O)ccc1O,0.35

row,Compound,T3 sensor activation Q score
1,CC(C)(C)c1nc(-c2cccc(NS(=O)(=O)c3c(F)cccc3F)c2F)c(-c2ccnc(N)n2)s1,1.05
2,O=C(c1ccccc1)c1ccc(-c2ccc(O)cc2)cc1,1.35
3,Nc1ccccc1SC1CC(=O)N(c2ccc(Cl)c(Cl)c2)C1=O (stereo unspecified),1.7
4,Nc1ccccc1SC1CC(=O)N(c2ccccc2Cl)C1=O (stereo unspecified),0.8
5,O=C1C(CO)C(CO)C(CO)C1CO (stereo unspecified),1
6,O=C1N=NC2=C1c1c3ccccc3c(O)n1CC2,1.7
7,Nc1cc(-c2ccccc2)ccc1O,-0.45
8,N#CC1=C2CCCCC2(O)NC1=O (stereo unspecified),-0.45
9,N#Cc1ncc(Cl)c2ccccc12,0.9
10,Nc1ccc(S(=O)(=O)Nc2cnc3ccccc3n2)cc1,0.45
11,NC(N)=Nc1ccc(N=C(N)N)cc1,0.3
12,O=c1ccn2c(n1)SC(c1ccccc1)C2 (stereo unspecified),0.2
13,CSc1cccc(NC(=O)N2CCN(C)CC2)c1,-0.1
14,Cn1c(SCc2ccccn2)nc2c1c(=O)[nH]c(=O)n2C,0.75
15,CCCCSc1cc(C)nc(N)n1,0.9
16,Oc1ccccc1N=Cc1c(O)ccc2ccccc12,0.25
17,COc1ccc2c(=O)cc(-c3cccnc3)oc2c1OC,0.1
18,CSc1nc(O)c(Nc2cccc(Cl)c2)c(=O)[nH]1,0.3
19,O=C(Nc1ccc(Cl)cc1)Nc1cccc2nsnc12,-1.05
20,OC(c1cc(-c2ccc(C(F)(F)F)cc2)nc(C(F)(F)F)c1)C1CCCCN1 (stereo unspecified),-2.3

# Gathered by group: those above with a nitro group on carbon (2)
row,Compound,T3 sensor activation Q score
20,O=[N+]([O-])/C=C/c1cc2ccccc2[nH]1,-0.75
17,COc1ccc([N+](=O)[O-])cc1NC(=O)N(C)Cc1ccco1,0
